Results on one molecule are retold here after PMC7070087.

The test has as its target FOXO1 (mouse (endogenous in MIN6)), Q9R1E0. The test can be described thus: co-IP; untransfected MIN6 cells treated with 5 ng/ml TGF-β1 and 0.5 mM palmitate for 24 h; IP with rabbit anti-FOXO1, blot with mouse anti-Smad3 (endogenous proteins). The following applies: remark: other sources report otherwise.

Results are given in words; binding and its absence hold for the method and conditions named. In cells and extracts the contact can be indirect. Some entries that bind do so weakly or less than the wild type.

B1: Smad3 (endogenous), Q8BUN5 1-425 (protein)
chain: MSSILPFTPPIVKRLLGWKKGEQNGQEEKWCEKAVKSLVKKLKKTGQLDELEKAITTQNVNTKCITIPRSLDGRLQVSHRKGLPHVIYCRLWRWPDLHSHHELRAMELCEFAFNMKKDEVCVNPYHYQRVETPVLPPVLVPRHTEIPAEFPPLDDYSHSIPENTNFPAGIEPQSNIPETPPPGYLSEDGETSDHQMNHSMDAGSPNLSPNPMSPAHNNLDLQPVTYCEPAFWCSISYYELNQRVGETFHASQPSMTVDGFTDPSNSERFCLGLLSNVNRNAAVELTRRHIGRGVRLYYIGGEVFAECLSDSAIFVQSPNCNQRYGWHPATVCKIPPGCNLKIFNNQEFAALLAQSVNQGFEAVYQLTRMCTIRMSFVKGWGAEYRRQTVTSTPCWIELHLNGPLQWLDKVLTQMGSPSIRCSSVS
Consider B1, for which the binding result is “binds”.
